The supplement of paper PMC10849652
This is one part of the list.

Protein sequences, listed by entry. Tags and fused reporters are not part of them. Lines headed by an entry give the natural chain unless they say otherwise; changes in a name come on top.
UniProt O14526: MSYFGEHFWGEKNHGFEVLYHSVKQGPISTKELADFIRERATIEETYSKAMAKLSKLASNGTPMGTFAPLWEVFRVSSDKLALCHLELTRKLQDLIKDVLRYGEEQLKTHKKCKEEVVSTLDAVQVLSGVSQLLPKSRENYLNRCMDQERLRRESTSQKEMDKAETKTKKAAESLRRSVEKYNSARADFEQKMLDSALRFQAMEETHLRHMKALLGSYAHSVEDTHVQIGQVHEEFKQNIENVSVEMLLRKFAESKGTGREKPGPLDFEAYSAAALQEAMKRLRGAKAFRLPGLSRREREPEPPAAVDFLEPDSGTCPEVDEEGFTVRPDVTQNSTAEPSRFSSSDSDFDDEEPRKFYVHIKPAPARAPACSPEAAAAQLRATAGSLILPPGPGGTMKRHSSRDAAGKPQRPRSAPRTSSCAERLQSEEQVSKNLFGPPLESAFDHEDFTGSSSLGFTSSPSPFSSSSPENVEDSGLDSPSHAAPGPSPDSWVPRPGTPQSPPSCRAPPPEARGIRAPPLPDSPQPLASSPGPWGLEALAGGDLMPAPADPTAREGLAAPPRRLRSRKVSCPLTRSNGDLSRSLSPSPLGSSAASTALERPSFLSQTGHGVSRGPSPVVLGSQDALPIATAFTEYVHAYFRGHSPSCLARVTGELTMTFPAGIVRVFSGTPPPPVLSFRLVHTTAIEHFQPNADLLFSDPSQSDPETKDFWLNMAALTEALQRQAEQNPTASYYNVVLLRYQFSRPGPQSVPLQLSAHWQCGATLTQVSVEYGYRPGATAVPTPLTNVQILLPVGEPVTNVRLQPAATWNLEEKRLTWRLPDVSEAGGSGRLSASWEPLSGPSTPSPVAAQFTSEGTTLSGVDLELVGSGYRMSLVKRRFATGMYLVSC
UniProt Q8TB52: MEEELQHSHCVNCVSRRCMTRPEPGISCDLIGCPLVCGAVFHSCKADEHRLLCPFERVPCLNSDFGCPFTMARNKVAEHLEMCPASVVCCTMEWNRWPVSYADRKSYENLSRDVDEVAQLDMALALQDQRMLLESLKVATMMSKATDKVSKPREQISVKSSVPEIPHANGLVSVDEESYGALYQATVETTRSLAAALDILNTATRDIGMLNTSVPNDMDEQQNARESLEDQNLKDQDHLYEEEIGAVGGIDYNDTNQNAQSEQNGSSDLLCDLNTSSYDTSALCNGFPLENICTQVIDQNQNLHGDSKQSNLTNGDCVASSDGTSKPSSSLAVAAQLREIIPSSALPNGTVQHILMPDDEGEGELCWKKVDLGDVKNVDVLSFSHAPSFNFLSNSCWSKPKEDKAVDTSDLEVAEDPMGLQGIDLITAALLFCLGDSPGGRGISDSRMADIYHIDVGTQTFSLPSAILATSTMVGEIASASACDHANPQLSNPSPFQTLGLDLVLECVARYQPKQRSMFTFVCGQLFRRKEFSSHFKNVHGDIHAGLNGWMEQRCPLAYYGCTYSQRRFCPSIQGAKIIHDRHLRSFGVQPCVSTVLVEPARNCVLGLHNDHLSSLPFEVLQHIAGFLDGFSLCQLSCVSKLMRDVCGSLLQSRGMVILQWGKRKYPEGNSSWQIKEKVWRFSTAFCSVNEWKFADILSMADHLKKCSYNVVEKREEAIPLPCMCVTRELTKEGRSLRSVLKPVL
UniProt P49327, whole entry, looked up: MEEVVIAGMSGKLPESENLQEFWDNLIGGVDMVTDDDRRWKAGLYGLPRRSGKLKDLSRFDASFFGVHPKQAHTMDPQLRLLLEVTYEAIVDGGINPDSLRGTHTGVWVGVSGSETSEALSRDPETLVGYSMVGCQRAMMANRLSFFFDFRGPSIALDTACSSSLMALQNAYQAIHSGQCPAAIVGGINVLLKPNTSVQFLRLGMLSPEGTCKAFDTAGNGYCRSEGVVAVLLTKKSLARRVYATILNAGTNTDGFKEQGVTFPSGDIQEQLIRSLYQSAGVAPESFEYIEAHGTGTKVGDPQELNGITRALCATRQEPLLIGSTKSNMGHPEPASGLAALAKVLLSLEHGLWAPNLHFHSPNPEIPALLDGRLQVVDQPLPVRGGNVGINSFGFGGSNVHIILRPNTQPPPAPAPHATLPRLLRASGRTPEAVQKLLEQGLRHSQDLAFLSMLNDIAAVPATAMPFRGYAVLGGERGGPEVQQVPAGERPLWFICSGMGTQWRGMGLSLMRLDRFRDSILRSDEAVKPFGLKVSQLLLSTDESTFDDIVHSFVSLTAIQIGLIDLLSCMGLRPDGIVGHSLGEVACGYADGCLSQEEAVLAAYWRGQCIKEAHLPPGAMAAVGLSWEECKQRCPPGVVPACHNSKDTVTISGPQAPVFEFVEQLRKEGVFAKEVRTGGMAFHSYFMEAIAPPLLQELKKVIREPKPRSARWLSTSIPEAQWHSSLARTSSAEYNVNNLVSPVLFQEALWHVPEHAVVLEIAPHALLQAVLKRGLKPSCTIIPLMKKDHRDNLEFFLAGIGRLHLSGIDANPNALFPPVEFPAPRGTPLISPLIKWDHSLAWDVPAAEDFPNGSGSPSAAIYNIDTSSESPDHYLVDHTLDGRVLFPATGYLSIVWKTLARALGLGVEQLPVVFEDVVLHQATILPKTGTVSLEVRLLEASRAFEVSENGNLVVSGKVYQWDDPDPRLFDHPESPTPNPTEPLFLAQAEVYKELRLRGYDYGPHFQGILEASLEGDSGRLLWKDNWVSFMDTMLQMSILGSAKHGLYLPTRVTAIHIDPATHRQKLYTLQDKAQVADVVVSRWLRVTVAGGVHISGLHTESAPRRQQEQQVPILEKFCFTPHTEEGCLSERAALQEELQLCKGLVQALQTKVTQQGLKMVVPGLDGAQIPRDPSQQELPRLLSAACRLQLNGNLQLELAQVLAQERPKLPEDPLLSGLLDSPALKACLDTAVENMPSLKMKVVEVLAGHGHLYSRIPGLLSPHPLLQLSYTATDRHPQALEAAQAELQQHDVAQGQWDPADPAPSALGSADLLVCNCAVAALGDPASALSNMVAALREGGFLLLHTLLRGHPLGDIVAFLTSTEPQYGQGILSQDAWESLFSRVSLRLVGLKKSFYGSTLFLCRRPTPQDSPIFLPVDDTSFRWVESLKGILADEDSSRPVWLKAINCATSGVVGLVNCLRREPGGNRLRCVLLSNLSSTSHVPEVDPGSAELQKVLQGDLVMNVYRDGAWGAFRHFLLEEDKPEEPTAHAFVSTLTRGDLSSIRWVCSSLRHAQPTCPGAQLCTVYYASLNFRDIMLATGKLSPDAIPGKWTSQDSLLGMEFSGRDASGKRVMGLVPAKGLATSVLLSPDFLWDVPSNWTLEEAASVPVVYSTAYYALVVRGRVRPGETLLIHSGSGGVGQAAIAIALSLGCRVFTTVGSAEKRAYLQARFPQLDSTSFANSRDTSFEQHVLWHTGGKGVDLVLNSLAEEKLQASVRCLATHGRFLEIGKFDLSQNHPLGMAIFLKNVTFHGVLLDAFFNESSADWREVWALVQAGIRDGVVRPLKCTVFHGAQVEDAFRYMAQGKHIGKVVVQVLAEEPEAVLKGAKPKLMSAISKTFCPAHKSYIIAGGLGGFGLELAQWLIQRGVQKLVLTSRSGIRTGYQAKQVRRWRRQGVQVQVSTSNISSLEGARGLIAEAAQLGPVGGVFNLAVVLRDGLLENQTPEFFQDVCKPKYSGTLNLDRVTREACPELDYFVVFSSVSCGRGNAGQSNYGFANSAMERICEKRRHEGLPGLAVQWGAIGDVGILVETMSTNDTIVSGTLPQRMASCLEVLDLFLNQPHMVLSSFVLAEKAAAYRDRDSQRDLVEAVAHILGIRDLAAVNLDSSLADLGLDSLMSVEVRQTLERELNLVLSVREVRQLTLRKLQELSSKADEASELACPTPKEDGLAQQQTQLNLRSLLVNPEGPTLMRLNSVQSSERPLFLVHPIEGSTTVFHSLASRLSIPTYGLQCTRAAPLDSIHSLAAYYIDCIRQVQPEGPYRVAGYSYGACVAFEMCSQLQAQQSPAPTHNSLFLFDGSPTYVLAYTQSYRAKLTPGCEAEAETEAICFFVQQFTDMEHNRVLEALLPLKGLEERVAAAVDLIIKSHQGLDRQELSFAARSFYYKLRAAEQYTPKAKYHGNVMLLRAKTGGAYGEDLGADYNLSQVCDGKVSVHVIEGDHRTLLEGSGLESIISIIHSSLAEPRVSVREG
UniProt Q9UK97: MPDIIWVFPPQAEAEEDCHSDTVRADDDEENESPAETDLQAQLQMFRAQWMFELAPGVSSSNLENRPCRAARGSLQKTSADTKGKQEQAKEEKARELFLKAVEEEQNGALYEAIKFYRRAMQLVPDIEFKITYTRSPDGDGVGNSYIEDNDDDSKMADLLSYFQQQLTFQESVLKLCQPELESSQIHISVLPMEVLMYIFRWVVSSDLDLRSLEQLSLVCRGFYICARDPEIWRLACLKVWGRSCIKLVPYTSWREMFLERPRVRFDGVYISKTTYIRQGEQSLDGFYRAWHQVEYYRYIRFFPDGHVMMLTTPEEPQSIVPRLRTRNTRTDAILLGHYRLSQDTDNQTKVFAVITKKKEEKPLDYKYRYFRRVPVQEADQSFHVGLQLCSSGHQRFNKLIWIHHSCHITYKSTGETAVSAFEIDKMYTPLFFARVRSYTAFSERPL
UniProt Q9UK73, whole entry, looked up: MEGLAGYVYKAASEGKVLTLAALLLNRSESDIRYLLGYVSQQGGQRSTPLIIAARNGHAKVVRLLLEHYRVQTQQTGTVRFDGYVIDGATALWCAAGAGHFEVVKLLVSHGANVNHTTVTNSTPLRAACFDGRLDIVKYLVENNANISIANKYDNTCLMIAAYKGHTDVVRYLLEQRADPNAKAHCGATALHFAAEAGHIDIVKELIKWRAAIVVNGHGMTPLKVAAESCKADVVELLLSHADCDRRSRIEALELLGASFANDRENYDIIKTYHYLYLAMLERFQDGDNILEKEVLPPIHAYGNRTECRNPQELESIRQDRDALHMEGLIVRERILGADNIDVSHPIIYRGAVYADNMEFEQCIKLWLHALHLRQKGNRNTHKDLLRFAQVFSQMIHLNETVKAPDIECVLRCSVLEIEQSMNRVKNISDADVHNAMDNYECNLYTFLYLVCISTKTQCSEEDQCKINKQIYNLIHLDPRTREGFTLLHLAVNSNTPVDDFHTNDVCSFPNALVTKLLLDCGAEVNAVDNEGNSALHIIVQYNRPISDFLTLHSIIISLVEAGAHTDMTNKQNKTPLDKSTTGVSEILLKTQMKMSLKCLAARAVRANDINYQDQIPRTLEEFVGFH
UniProt Q6UN15: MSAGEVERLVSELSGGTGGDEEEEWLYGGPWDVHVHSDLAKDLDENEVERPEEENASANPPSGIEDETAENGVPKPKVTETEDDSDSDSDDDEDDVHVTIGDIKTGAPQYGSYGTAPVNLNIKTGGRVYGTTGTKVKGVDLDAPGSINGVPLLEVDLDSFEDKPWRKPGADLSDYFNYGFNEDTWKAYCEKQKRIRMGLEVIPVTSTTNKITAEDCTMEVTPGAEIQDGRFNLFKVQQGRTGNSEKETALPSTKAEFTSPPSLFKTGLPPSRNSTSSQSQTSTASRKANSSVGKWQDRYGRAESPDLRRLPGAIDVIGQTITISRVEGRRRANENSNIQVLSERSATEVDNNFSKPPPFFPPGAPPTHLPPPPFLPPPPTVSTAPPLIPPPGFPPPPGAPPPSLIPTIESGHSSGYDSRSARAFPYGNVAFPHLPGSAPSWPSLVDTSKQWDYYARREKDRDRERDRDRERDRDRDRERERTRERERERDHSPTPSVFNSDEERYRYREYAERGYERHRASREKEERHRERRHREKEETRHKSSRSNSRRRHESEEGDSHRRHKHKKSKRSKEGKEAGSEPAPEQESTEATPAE
UniProt Q9UKA2: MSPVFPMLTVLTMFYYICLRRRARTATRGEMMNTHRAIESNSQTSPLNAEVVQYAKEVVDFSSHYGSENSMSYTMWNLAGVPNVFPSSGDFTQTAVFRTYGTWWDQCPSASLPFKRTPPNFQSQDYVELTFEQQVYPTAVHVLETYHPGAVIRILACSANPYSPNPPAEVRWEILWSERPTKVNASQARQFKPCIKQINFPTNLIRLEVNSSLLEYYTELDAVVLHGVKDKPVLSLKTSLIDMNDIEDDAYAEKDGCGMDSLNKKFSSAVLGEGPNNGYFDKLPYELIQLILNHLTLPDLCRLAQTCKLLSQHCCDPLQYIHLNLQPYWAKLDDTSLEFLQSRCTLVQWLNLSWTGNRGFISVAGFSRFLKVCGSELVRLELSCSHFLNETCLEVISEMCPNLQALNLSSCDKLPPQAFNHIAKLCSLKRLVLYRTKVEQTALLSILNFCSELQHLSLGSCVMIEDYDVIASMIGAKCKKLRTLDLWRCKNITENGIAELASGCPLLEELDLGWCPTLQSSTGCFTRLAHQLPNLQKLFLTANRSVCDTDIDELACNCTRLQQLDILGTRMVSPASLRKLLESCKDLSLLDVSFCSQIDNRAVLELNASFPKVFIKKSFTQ

Tests used:
Test in all cases: log2 fold change, soluble protein after heating vs DMSO (PISA); higher = thermal stabilisation; K562 lysate, 10 uM; active = over 0.2 and 3.5 SD of the protein, either way, in both replicates (recomputed)
erlotinib = compound: C#Cc1cccc(Nc2ncnc3cc(OCCOC)c(OCCOC)cc23)c1 [erlotinib]
In short: (§1)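 K562 pellets were dounce-homogenised in PBS pH 7.4 containing 1 mM MgCl2, and the crude extract, at 1 mg/mL protein, was exposed to 10 μM compound for 30 min. Aliquots were heated for 3 min across 48°C-58°C, pooled, brought to 0.5% NP-40 at 4°C and spun at 21,000xg for 90 min, with the supernatant taken as soluble protein. TMTpro 16plex LC-MS/MS with equalised channel sums quantified that protein. Values are log-two fold changes in thermal stability relative to solvent controls, taken from duplicates.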

[1] = compound: C/C(=N\NC(=O)C1=CC(=CC=C1)S(=O)(=O)N2CCOCC2)/C3=C(C=CC(=C3)Cl)O
In short: as §1

[2] = compound: C1=CC(=CC=C1C2=NC3=C(N2)C=C(C=C3)C(=O)N)OC4=CC=C(C=C4)Cl
In short: as §1

[3] = compound: C1=CC2=C(C=CC(=C2)/C=C\3/C(=O)NC(=NCC4=CC=CS4)S3)N=C1
In short: as §1

[4] = compound: C1=CC2=NC=CN=C2C=C1/C=C/3\C(=O)NC(=O)S3
In short: as §1

[5] = compound: C1=CC=C(C=C1)C2=NC(=C(N2)C3=CC=NC=C3)C4=CC(=C(C=C4)Cl)O
In short: as §1

[6] = compound: C1=CC=C2C(=C1)C3=NNC4=CC=CC(=C43)C2=O
In short: as §1

[7] = compound: C1CCN(C1)C(=O)NC2=CC=CC(=C2)NC3=NC=C(C(=N3)NCCC4=CN=CN4)Br
In short: as §1

[8] = compound: C1CN(CCC1(CC2=CC=C(C=C2)Cl)N)C3=NC=NC4=C3C=CN4
In short: as §1

IRAK-1-4 Inhibitor I = compound: C1COCCN1CCN2C3=CC=CC=C3N=C2NC(=O)C4=CC(=CC=C4)[N+](=O)[O-] [IRAK-1-4 Inhibitor I]
In short: as §1

ibrutinib = compound: C=CC(=O)N1CCC[C@@H](n2nc(-c3ccc(Oc4ccccc4)cc3)c3c(N)ncnc32)C1 [ibrutinib]
In short: as §1

[9] = compound: CC(=O)c1cnc2ccc(-c3cc(Cl)c(O)c(Cl)c3)nc2c1N[C@H]1CC[C@H](CN(C)C)CC1
In short: as §1

ralimetinib = compound: CC(C)(C)Cn1c(N)nc2ccc(-c3[nH]c(C(C)(C)C)nc3-c3ccc(F)cc3)nc21 [ralimetinib]
In short: as §1

[10] = compound: CC(C)(O)CC(=O)NCCn1ccc2ncnc(Nc3ccc(Oc4cccc(C(F)(F)F)c4)c(Cl)c3)c21
In short: as §1

[11] = compound: CC(C)C1=C2N=C(C=C(N2N=C1)NCC3=CC=CC=C3)NCCCCCCN
In short: as §1

[12] = compound: CC1=C(C(CC(=O)N1)C2=CC=C(C=C2)C(F)(F)F)C(=O)NC3=C(C=C4C(=C3)C=NN4)F
In short: as §1

[13] = compound: CC1=C(C2=C(C=C1)C(=O)C3=CC=CC=C3N2CCCN)C
In short: as §1

[14] = compound: CC1=C(C=C(C=C1)NC(=O)C2=CC(=CC=C2)C(C)(C)C#N)NC3=CC4=C(C=C3)N=CN(C4=O)C
In short: as §1

[15] = compound: CC1=C(C=C(C=C1)NC(=O)C2=CC(=CC=C2)N(C)C)NC(=O)C3=CC=C(C=C3)O
In short: as §1

[16] = compound: CC1=CC=C(C=C1)SC2=C3C=C(SC3=CN=C2)C(=O)N
In short: as §1

Measured: log2 fold change

FCHO1 (UniProt O14526)
inactive: erlotinib 0.062 | [1] 0.034 | [2] 0.045 | [3] -0.055 | [4] 0.024 | [5] 0.065 | [6] -0.064 | [7] -0.044 | [8] -0.022 | IRAK-1-4 Inhibitor I -0.021 | ibrutinib -0.053 | [9] 0.022 | ralimetinib 0.018 | [10] 0.014 | [11] 0.013 | [12] 0.031 | [13] 0.018 | [14] 0.002 | [15] 0.004 | [16] 0.041

FBXO30 (UniProt Q8TB52)
inactive: erlotinib 0.006 | [1] -0.064 | [2] -0.031 | [3] 0.014 | [4] -0.038 | [5] -0.008 | [6] 0.042 | [7] -0.014 | [8] -0.007 | IRAK-1-4 Inhibitor I -0.018 | ibrutinib 0.022 | [9] -0.007 | ralimetinib 0.057 | [10] 0.046 | [11] -0.009 | [12] -0.003 | [13] 0.013 | [14] 0.016 | [15] 0.006 | [16] 0.016

FASN (UniProt P49327)
inactive: erlotinib 0.011 | [1] 0.055 | [2] -0.004 | [3] 0.006 | [4] 0.011 | [5] -0.003 | [6] -0.006 | [7] -0.004 | [8] 0.014 | IRAK-1-4 Inhibitor I -0.007 | ibrutinib -0.009 | [9] -0.012 | ralimetinib 0.005 | [10] 0.01 | [11] 0.016 | [12] -0.018 | [13] 0.006 | [14] 0.026 | [15] -0.008 | [16] 0.014

FBXO9 (UniProt Q9UK97)
inactive: erlotinib -0.06 | [1] 0.126 | [2] 0.091 | [3] 0.013 | [4] 0.086 | [5] 0.01 | [6] -0.032 | [7] 0.019 | [8] -0.108 | IRAK-1-4 Inhibitor I -0.005 | ibrutinib 0.006 | [9] -0.014 | ralimetinib -0.046 | [10] 0.077 | [11] -0.09 | [12] 0.009 | [13] 0.019 | [14] 0.017 | [15] 0.047 | [16] 0.026

FEM1B (UniProt Q9UK73)
inactive: erlotinib 0.032 | [1] -0.068 | [2] 0.008 | [3] -0.059 | [4] -0.024 | [5] -0.022 | [6] -0.005 | [7] -0.078 | [8] 0.036 | IRAK-1-4 Inhibitor I 0.051 | ibrutinib -0.071 | [9] 0.09 | ralimetinib -0.002 | [10] -0.046 | [11] -0.025 | [12] 0.026 | [13] -0.057 | [14] 0.013 | [15] 0.064 | [16] 0.023

FBXW8 (UniProt Q8N3Y1)
inactive: erlotinib -0.002 | [1] 0.149 | [2] -0.179 | [3] -0.22 | [4] 0.033 | [5] -0.173 | [6] 0.029 | [7] -0.063 | [8] 0.166 | IRAK-1-4 Inhibitor I 0.107 | ibrutinib -0.457 | [9] 0.213 | ralimetinib -0.057 | [10] -0.174 | [11] 0.012 | [12] -0.061 | [15] 0.055 | [16] 0.042

FARP2 (UniProt O94887)
inactive: erlotinib -0.005 | [2] -0.125 | [4] -0.155 | [5] -0.135 | IRAK-1-4 Inhibitor I -0.033 | ibrutinib 0.004 | [9] -0.076 | ralimetinib 0.037 | [10] 0.003 | [11] -0.02 | [12] 0.065 | [13] -0.155 | [14] 0.02 | [15] -0.047 | [16] 0.017

FBXO11 isoform 5 (UniProt Q86XK2)
inactive: erlotinib 0.177 | [2] 0.237 | [4] -0.075 | [5] 0.008 | IRAK-1-4 Inhibitor I 0.045 | ibrutinib -0.131 | [9] 0.13 | ralimetinib -0.019 | [10] 0.146 | [11] 0.024 | [12] -0.079 | [13] -0.059 | [14] 0.005 | [15] -0.051 | [16] -0.011

FARP2 (UniProt H7C3M7)
inactive: erlotinib 0.089 | [1] 0.061 | [2] -0.189 | [3] 0.061 | [5] 0.036 | [6] -0.002 | [7] -0.057 | [8] 0.145 | IRAK-1-4 Inhibitor I 0.007 | ralimetinib -0.01 | [10] -0.007 | [11] -0.048 | [12] -0.035 | [13] -0.081 | [14] 0.008 | [15] -0.034

FIP1L1 isoform 3 (UniProt Q6UN15)
inactive: erlotinib 0.035 | [2] 0.194 | [5] 0.018 | [7] 0.009 | [8] 0.171 | IRAK-1-4 Inhibitor I 0.028 | [9] -0.152 | ralimetinib -0.03 | [10] -0.095 | [11] -0.049 | [12] -0.042 | [14] -0.169 | [15] -0.098 | [16] -0.269

3 neighbouring records from above, for reference:
FEM1B (UniProt Q9UK73)
inactive: erlotinib 0.032 | [1] -0.068 | [2] 0.008 | [3] -0.059 | [4] -0.024 | [5] -0.022 | [6] -0.005 | [7] -0.078 | [8] 0.036 | IRAK-1-4 Inhibitor I 0.051 | ibrutinib -0.071 | [9] 0.09 | ralimetinib -0.002 | [10] -0.046 | [11] -0.025 | [12] 0.026 | [13] -0.057 | [14] 0.013 | [15] 0.064 | [16] 0.023

FBXW8 (UniProt Q8N3Y1)
inactive: erlotinib -0.002 | [1] 0.149 | [2] -0.179 | [3] -0.22 | [4] 0.033 | [5] -0.173 | [6] 0.029 | [7] -0.063 | [8] 0.166 | IRAK-1-4 Inhibitor I 0.107 | ibrutinib -0.457 | [9] 0.213 | ralimetinib -0.057 | [10] -0.174 | [11] 0.012 | [12] -0.061 | [15] 0.055 | [16] 0.042

FARP2 (UniProt O94887)
inactive: erlotinib -0.005 | [2] -0.125 | [4] -0.155 | [5] -0.135 | IRAK-1-4 Inhibitor I -0.033 | ibrutinib 0.004 | [9] -0.076 | ralimetinib 0.037 | [10] 0.003 | [11] -0.02 | [12] 0.065 | [13] -0.155 | [14] 0.02 | [15] -0.047 | [16] 0.017

Following part.

FBXL4 (UniProt Q9UKA2)
inactive: erlotinib -0.021 | [2] 0.042 | [5] 0.074 | [7] 0.206 | [8] 0.157 | IRAK-1-4 Inhibitor I 0.003 | ralimetinib 0.063 | [10] -0.049 | [11] -0.161 | [12] 0.046 | [15] -0.021

FAT2 (UniProt Q9NYQ8)
inactive: erlotinib 0.215 | [1] -0.092 | [2] -0.311 | [3] 0.038 | [4] -0.076 | [5] -0.135 | [6] -0.147 | [7] -0.007 | [8] 0.01 | IRAK-1-4 Inhibitor I -0.016 | ibrutinib 0.01 | [9] 0.057 | ralimetinib -0.156 | [10] -0.123 | [11] -0.314 | [12] -0.019 | [14] 0.166 | [15] 0.038 | [16] -0.023
